Taken from: PubChem BioAssay AID1159584 (Peter MacCallum Cancer Centre, 2016)
The whole screen tested about 18,000 reagents; shown is an unselected part. Further read-outs or replicates are left out here. The record does not give: the amount of reagent, the time to read-out.

Purpose: 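Genes that CDH1-null MCF10A cells selectively depend on to survive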 (primary screen)
Cell system: human MCF10A breast epithelial cells, parental and CDH1-null
Reagent: siRNA against human genes
Detection: 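Cell viability by CellTiter-Glo ATP luminescence, each line scaled to the mean of mock wells across plates, then CDH1-null over parental ratio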
Scale: CDH1-null / parental viability ratio: higher = CDH1-null cells survive relatively better than parental; CDH1-null viability vs mock: higher = more viable CDH1-null cells

With knock-down of CCL21 the results were CDH1-null / parental viability ratio 1.27; CDH1-null viability vs mock (fraction of mock) = 0.61.
COG5 showed CDH1-null / parental viability ratio 1.18; CDH1-null viability vs mock (fraction of mock) = 0.79.
Depletion of MYBPC3 gave: CDH1-null / parental viability ratio 1.16; CDH1-null viability vs mock (fraction of mock) = 1.16.
Knock-down of RELB resulted in: CDH1-null / parental viability ratio 1.08; CDH1-null viability vs mock (fraction of mock) = 0.84.
After knock-down of BCCIP, the record shows CDH1-null / parental viability ratio 1; CDH1-null viability vs mock (fraction of mock) = 0.42.
Against RAB18 the deposit lists CDH1-null / parental viability ratio 0.91; CDH1-null viability vs mock (fraction of mock) = 0.73.
After knock-down of AAK1 the results were CDH1-null / parental viability ratio 0.89; CDH1-null viability vs mock (fraction of mock) = 0.64.
With knock-down of KBTBD11 the results were CDH1-null / parental viability ratio 1.27; CDH1-null viability vs mock (fraction of mock) = 1.12.

Only “CDH1-null viability vs mock (fraction of mock)” (4 entries from above):
COG5: 0.79
MYBPC3: 1.16
RELB: 0.84
BCCIP: 0.42

The listing continues.
For WDR53, the values are CDH1-null / parental viability ratio 0.9; CDH1-null viability vs mock (fraction of mock) = 0.72.
With knock-down of ADAMTS14, the screen gave CDH1-null / parental viability ratio 1.72; CDH1-null viability vs mock (fraction of mock) = 0.55.
Against KLK13, the entry reads CDH1-null / parental viability ratio 1.14; CDH1-null viability vs mock (fraction of mock) = 0.99.
For MMP20, the values are CDH1-null / parental viability ratio 0.9; CDH1-null viability vs mock (fraction of mock) = 0.82.
Silencing of FILIP1L came out at: CDH1-null / parental viability ratio 0.85; CDH1-null viability vs mock (fraction of mock) = 0.67.
Knock-down of TTC16 came out at: CDH1-null / parental viability ratio 1.04; CDH1-null viability vs mock (fraction of mock) = 0.77.
Depletion of GJB3 gave: CDH1-null / parental viability ratio 0.87; CDH1-null viability vs mock (fraction of mock) = 0.7.
Against FBXW10B the deposit lists CDH1-null / parental viability ratio 1.54; CDH1-null viability vs mock (fraction of mock) = 1.
For PSMC3IP, the values are CDH1-null / parental viability ratio 0.89; CDH1-null viability vs mock (fraction of mock) = 0.55.
For RABL2A, the entry reads CDH1-null / parental viability ratio 0.48; CDH1-null viability vs mock (fraction of mock) = 0.29.
MYO9B scored CDH1-null / parental viability ratio 1.15; CDH1-null viability vs mock (fraction of mock) = 0.84.
For SNHG29 the deposit lists CDH1-null / parental viability ratio 0.92; CDH1-null viability vs mock (fraction of mock) = 0.72.
CDRT15P3 gave CDH1-null / parental viability ratio 0.72; CDH1-null viability vs mock (fraction of mock) = 0.29.
Against ASPSCR1 the deposit lists CDH1-null / parental viability ratio 0.69; CDH1-null viability vs mock (fraction of mock) = 0.66.
After knock-down of PAPPA, the record shows CDH1-null / parental viability ratio 1.07; CDH1-null viability vs mock (fraction of mock) = 0.9.
Silencing of WFDC3 came out at: CDH1-null / parental viability ratio 1.1; CDH1-null viability vs mock (fraction of mock) = 0.43.
